Test results published in publication PMC5572705.
Results are given in words; binding and its absence hold for the method and conditions named. In cells and extracts the contact can be indirect. Some results given as binding are weak or reduced against the parent protein; the word gives no strength.

Amino acid sequences for entries named in this document (tags omitted).
UniProt Q13547: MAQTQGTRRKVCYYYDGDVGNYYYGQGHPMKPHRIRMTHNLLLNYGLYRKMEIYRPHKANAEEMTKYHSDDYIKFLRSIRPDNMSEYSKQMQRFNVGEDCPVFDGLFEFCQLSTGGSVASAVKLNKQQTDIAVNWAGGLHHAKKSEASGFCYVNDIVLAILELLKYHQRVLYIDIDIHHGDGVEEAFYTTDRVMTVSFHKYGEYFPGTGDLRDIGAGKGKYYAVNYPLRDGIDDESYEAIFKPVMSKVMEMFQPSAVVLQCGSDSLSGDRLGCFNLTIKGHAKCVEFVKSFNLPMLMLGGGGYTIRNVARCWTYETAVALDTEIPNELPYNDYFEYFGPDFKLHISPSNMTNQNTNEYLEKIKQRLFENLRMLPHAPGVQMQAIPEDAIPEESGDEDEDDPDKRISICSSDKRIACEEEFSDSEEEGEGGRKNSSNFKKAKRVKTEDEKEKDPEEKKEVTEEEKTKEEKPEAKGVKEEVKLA
UniProt P51532: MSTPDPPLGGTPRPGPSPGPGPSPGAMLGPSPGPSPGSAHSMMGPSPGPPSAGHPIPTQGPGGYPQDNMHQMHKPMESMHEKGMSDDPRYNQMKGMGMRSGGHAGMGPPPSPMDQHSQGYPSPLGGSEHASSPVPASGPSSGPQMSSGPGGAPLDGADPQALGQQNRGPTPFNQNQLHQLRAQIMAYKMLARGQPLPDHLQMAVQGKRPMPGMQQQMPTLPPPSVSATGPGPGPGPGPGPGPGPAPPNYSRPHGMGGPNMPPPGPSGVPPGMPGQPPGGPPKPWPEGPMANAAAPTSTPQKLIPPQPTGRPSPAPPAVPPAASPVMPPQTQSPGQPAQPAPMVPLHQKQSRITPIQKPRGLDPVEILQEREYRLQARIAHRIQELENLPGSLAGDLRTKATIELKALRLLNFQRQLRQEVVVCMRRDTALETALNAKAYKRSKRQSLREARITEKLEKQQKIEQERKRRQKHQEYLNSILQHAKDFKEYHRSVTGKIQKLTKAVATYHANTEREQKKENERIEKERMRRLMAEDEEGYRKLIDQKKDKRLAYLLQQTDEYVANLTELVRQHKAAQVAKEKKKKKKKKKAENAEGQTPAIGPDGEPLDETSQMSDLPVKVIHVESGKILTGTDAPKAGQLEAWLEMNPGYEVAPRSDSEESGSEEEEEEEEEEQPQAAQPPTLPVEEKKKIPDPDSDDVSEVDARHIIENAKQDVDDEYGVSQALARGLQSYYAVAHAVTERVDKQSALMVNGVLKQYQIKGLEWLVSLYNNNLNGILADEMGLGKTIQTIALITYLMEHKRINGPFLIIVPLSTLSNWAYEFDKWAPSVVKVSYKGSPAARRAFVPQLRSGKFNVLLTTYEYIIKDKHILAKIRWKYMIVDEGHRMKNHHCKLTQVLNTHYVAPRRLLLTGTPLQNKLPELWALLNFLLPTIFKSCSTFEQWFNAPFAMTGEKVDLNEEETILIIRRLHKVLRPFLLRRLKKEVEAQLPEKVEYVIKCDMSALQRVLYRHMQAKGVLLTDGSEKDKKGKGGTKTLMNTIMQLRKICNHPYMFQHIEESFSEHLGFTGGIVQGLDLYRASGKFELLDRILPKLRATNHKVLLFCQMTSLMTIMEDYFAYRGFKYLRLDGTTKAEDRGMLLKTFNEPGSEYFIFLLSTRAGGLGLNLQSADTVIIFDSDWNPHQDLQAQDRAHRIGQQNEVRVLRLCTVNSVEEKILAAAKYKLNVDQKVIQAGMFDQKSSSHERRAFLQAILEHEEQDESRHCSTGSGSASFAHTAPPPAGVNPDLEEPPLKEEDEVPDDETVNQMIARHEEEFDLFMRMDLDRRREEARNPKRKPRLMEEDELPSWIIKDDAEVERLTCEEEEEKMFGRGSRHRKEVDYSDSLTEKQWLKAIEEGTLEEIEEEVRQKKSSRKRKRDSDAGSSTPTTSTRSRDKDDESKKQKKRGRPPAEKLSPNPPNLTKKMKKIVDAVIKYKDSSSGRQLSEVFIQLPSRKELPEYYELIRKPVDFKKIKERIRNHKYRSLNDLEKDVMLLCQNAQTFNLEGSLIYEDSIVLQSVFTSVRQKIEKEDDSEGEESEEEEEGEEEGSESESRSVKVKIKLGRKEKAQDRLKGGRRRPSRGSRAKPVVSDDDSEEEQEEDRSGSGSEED
UniProt P51531: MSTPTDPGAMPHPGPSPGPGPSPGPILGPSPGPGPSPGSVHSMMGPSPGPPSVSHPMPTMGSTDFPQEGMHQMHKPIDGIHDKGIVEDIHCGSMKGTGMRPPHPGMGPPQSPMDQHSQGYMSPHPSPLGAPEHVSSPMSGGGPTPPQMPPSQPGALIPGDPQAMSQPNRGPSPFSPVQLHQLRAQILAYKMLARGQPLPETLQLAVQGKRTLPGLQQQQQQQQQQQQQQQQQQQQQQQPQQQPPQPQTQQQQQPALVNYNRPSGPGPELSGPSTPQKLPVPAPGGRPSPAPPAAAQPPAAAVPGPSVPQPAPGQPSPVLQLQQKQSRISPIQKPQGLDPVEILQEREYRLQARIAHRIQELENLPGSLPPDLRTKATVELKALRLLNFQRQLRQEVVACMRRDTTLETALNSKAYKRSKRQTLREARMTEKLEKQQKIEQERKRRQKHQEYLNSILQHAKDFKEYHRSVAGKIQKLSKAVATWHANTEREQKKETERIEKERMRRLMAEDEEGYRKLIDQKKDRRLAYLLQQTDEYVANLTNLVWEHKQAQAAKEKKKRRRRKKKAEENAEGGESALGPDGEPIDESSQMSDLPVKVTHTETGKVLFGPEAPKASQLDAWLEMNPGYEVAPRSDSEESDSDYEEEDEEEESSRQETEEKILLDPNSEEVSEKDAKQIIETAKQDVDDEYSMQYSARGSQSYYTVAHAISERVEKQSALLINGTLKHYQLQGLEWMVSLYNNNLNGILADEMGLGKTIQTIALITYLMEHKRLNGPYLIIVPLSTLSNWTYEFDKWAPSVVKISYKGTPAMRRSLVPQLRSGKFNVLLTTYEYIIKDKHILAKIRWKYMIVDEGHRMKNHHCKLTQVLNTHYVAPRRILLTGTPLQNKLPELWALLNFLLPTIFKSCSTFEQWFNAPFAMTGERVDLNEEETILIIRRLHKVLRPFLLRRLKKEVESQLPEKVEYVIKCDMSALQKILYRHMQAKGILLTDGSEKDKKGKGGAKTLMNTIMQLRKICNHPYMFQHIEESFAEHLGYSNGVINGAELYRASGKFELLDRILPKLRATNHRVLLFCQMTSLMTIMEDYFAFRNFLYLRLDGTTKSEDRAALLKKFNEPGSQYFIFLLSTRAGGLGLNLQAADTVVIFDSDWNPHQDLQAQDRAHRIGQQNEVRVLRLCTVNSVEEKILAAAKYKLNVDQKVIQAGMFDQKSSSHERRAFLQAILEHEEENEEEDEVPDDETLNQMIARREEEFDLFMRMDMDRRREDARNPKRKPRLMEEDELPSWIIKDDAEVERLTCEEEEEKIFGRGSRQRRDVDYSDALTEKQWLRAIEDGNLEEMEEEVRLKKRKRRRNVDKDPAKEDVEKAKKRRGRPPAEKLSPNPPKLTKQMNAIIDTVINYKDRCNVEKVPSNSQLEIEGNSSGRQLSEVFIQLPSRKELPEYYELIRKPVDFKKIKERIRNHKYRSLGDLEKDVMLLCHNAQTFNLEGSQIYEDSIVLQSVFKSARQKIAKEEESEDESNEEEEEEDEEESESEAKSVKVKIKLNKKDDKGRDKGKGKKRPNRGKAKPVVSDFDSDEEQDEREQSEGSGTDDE
UniProt Q16254: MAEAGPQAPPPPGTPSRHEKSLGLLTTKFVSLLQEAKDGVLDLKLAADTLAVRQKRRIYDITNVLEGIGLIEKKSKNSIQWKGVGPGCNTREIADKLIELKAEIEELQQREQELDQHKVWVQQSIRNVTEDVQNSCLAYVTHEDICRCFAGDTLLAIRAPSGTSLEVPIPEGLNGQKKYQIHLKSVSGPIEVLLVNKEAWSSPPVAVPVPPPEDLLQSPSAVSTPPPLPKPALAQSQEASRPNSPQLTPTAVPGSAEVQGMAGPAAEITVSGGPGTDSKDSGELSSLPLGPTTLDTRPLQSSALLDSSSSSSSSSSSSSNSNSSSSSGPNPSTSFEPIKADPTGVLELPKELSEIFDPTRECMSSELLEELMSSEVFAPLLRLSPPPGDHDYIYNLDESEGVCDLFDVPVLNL
UniProt Q08999: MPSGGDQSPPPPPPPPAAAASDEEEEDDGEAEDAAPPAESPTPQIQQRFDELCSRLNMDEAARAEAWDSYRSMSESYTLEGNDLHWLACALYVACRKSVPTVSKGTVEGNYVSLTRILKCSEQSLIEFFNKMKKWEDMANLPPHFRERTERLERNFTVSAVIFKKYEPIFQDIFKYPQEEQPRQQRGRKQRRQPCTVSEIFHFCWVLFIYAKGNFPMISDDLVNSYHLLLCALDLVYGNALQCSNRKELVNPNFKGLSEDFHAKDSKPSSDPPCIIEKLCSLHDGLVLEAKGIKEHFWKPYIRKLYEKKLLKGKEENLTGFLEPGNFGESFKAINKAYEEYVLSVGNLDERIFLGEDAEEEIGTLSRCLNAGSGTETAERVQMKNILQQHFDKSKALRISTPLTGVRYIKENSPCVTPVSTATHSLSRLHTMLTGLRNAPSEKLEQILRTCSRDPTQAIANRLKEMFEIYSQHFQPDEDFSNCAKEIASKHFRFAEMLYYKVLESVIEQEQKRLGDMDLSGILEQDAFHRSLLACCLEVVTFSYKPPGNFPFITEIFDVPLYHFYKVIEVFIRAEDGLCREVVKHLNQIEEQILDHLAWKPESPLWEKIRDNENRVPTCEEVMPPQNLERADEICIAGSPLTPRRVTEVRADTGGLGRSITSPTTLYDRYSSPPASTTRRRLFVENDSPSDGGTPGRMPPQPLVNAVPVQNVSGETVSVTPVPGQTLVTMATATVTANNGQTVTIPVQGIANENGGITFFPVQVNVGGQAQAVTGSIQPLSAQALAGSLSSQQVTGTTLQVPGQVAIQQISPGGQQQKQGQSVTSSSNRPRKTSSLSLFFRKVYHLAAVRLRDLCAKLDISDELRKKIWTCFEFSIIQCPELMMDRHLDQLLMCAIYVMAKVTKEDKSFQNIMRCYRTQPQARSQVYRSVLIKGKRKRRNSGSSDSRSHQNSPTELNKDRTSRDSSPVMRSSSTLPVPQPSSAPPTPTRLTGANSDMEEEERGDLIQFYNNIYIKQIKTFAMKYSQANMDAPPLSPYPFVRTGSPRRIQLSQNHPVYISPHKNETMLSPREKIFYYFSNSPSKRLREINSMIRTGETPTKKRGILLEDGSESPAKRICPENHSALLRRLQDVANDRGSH

Target: HDAC1 (histone deacetylase-1) (human (endogenous in THP-1)) (UniProt Q13547)
Experiment: co-IP; 1 mg total cell lysate in IP buffer (20 mM HEPES pH 7.9, 75 mM KCl, 2.5 mM MgCl2, 0.1% NP-40) with 5 ug anti-HDAC1 rabbit antibody, 4 C, 3 h; Dynabeads Protein G; five washes; western blot of co-precipitated proteins; cells differentiated (Fig. 3i) or arrested in G1 with mimosine (Fig. 4j)

binding | Substance
binds | BRG1 (SWI/SNF) (from UniProt P51532 1-1647) (enzyme)
binds | BRM (SWI/SNF) (from UniProt P51531 1-1590) (enzyme)
binds | E2F4 (from UniProt Q16254 1-413)
binds | RBL2/p130 (from UniProt Q08999 1-1139)
